Data reported in PubChem BioAssay AID1745846 (National Center for Advancing Translational Sciences (NCATS), 2022).
The whole screen tested about 1,400 compounds, of which about 30 (2%) were called active. About 15% were inconclusive and are not listed. Calls follow the shape of the dose curve; as a rule, active = well fitted inhibition curve with a large enough effect; inconclusive = small, poorly fitted or top-dose-only effect; inactive = flat fitted curve, though single readings scatter. Some of the results follow.

Assay: Firefly Luciferase Counterscreen for Inhibitors of ATXN expression
Settings: luminescence; series mostly up to 57.5 µM; activity change, negative = inhibition: at the top concentration
Method in brief: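 Recombinant firefly luciferase at 10 nM final in 50 mM Tris pH 7.5, 10 mM MgCl2, 0.05% BSA, 0.01% Tween20 with substrate; compounds up to 57 uM final, 10 min room temperature, end-point luminescence. Buffer-only wells define 100% inhibition.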
% is scaled to controls: 0 for no effect and ±100 for the full control effect.

Row | Structure (SMILES) | activity change, negative = inhibition | Potency
1 | O=C(NC(c1ccc(Cl)cc1)c1cc(Cl)c2cccnc2c1O)c1cccnc1 (stereo not drawn) | inactive: -2.31% | –
2 | COc1ccc(O)c(/C=N/NC(=O)CCC(=O)Nc2cccc(C)c2)c1 | inactive: -5.19% | –
3 | Cc1c(N=C2N=C(NC(=O)Nc3ccc(Cl)cc3)c3ccccc32)c(=O)n(-c2ccccc2)n1C | inactive: -0.451% | –
4 | Cc1cccc(Nc2c3c(nc4ccccc24)CCC3)c1 | inactive: -0.971% | –
5 | Cc1cc(N/N=C/c2ccc(O)cc2O)nc(-n2nc(C)cc2C)n1 | inactive: -6.93% | –
6 | Cc1ccc(C2CC(=O)Nc3c2ccc2ccccc32)cc1[N+](=O)[O-] (stereo not drawn) | inactive: -4.69% | –
7 | C[n+]1c2cc(N)ccc2cc2ccc(N)cc21 | – | inactive
8 | CC(=O)NC(=C(Cl)Cl)S(=O)(=O)c1ccccc1 | inactive: 1.35% | –
9 | COc1cc2c(cc1OC)C(C)N(C(=O)c1cc3c(s1)-c1ccccc1OC3)CC2 (stereo not drawn) | inactive: -5.95% | –
10 | CN(C)CCn1c2ccccc2c2nc3ccc([N+](=O)[O-])cc3cc21 | inactive: -5.41% | –
11 | O=C(NC(c1ccccc1)c1ccc2ccccc2n1)C1CCN(CCOc2ccc(Cl)cc2Cl)CC1 (stereo not drawn) | inactive: -10.2% | –
12 | CN(C)CCNC(=O)c1cccc(-c2cnc3c(NC=O)cc(-c4cccs4)cn23)c1 | inactive: -5.21% | –
13 | Cc1ccc2nc3cc([N+](=O)[O-])cc([N+](=O)[O-])c3cc2c1 | inactive: -5.55% | –
14 | COc1ccccc1-c1cc2nc(-c3ccccc3)cc(N3CCN(C(=O)c4ccco4)CC3)n2n1 | inactive: -6.68% | –
15 | O=C(N/N=C(\Cc1ncc[nH]1)c1ccccc1)c1ccncc1 | inactive: 2.33% | –
16 | Cn1nnnc1Sc1ncnc2scc(-c3ccc[nH]3)c12 | inactive: -5.81% | –
17 | Cn1c(/C=C/c2ccc(Cl)cc2)c([N+](=O)[O-])c(=O)n(C)c1=O | inactive: -2.66% | –
18 | Cc1cccc(N2CCN(C(=O)CC(NC(=O)c3ccccc3Cl)c3ccccc3)CC2)c1C (stereo not drawn) | inactive: 0.399% | –
19 | CCCNC(=O)c1ccc2c(=O)c(O)c(-c3ccc(C)cc3)[nH]c2c1 | inactive: 1.21% | –
20 | CCCC(=O)NC(c1ccc(Cl)cc1Cl)c1ccc2cccnc2c1O (stereo not drawn) | inactive: 3.8% | –
21 | COc1ccc(CSCC(=O)N/N=C/c2ccccc2O)cc1 | inactive: -4.55% | –
22 | COc1ccc(C(=O)c2c(C)c3ccccc3n2CC(O)CNC(C)C)cc1 (stereo not drawn) | inactive: 1.19% | –
23 | CCc1ccc(OCCNc2cc(N3CCNC(C)C3)ccc2[N+](=O)[O-])cc1 (stereo not drawn) | inactive: -13.4% | –
24 | Cc1cc(C)c2nc(N(CCCN(C)C)C(=O)c3ccc4c(c3)OCCO4)sc2c1 | inactive: 0.966% | –
25 | NC(Cc1ccc(F)cc1)c1csc(NC(=O)NC(c2ccccc2)c2ccccc2)n1 (stereo not drawn) | inactive: 2.44% | –
26 | OC[C@@H]1[C@@H](c2ccc(F)cc2)C(c2ccccc2)=NN1c1ccccc1 | inactive: -0.288% | –
27 | Cc1nc(SCC(=O)Nc2ccc(S(=O)(=O)N3CCOCC3)cc2)c2c(C)c(C)sc2n1 | inactive: -2.48% | –
28 | N#CCc1nc2ccccc2c(=O)[nH]1 | inactive: -4.59% | –

Quoted at random: 2 compounds from above
Row | Structure (SMILES) | activity change, negative = inhibition | Potency
13 | Cc1ccc2nc3cc([N+](=O)[O-])cc([N+](=O)[O-])c3cc2c1 | inactive: -5.55% | –
3 | Cc1c(N=C2N=C(NC(=O)Nc3ccc(Cl)cc3)c3ccccc32)c(=O)n(-c2ccccc2)n1C | inactive: -0.451% | –
